Test results reported in US3988337A, “Substituted triamino-s-triazines” (BASF Wyandotte Corporation, priority 1974, dated 1976).

Assay: Catalysis of toluene diisocyanate condensation to cellular/resinous carbodiimide products (Table I)
Set-up: key: C: carbodiimide peaks; I: isocyanurate peaks
Details: IR of product; catalyst 1.0 part; 100 parts toluene diisocyanate
Protocol: Utilizing the triazines of Examples III-VI hereof, a series of cellular and resinous products characterized by carbodiimide linkages, as defined in the above-referred to patents, were prepared by the following procedure:
One hundred parts of toluene diisocyanate was admixed with a catalyst in accordance herewith. With stirring, the admixture was heated to its reaction initiation temperature at which time the reactants were transferred to a separate container for foaming.

Compound: CCN(CC)CCN(C)c1nc(N(C)CCO)nc(N(C)CCN(CC)CC)n1 [Example VI, 2,4-bis(N-methyl-2-diethylaminoethylamino)-6-(N-methyl-2-hydroxyethylamino)-s-triazine]
- IR Peaks: I
